The text below walks through data of PMC3907409, “A Cytoplasmic New Catalytic Subunit of Calcineurin in Trypanosoma cruzi and Its Molecular and Functional Characterization” (PLoS Neglected Tropical Diseases, 2014).

The target in test [1] is 6×His-SUMO-TcCaNA2 (recombinant Trypanosoma cruzi calcineurin catalytic subunit A2) (Trypanosoma cruzi (CL strain)). Description: far-Western, overlay or dot blot; 1 µg 6×His-SUMO-TcCaNA2 resolved on 10% SDS-PAGE, transferred to PVDF, denatured and renatured with guanidine-HCl (6, 3, 1, 0.1, 0 M), blocked with PBS, 0.5% Tween 20, 5% skim milk, incubated with 10 µg GST-TcCaNB; detected with polyclonal anti-GST-TcCaNB antibody, HRP-conjugated secondary antibody and DAB; both purified.

The target in test [2] is native TcCaNA2 (calcineurin catalytic subunit A2 in Trypanosoma cruzi epimastigotes) (Trypanosoma cruzi (endogenous in CL strain epimastigotes)). As to the kind of experiment: SDS-PAGE and Western blot of parasite extracts (size of the band, dissociation by urea); total extracts of 1×10^7 epimastigotes in Laemmli buffer, with urea (2, 4 and 6 M), overnight at 4°C; 10% SDS-PAGE, PVDF, anti-TcCaNA2 antibody; band of about 45 kDa.

Test [3] shares this target. Description: SDS-PAGE and Western blot of parasite extracts (size of the band, dissociation by urea); total extracts of 1×10^7 epimastigotes in Laemmli buffer, without urea, overnight at 4°C; 10% SDS-PAGE, PVDF, anti-TcCaNA2 antibody; band of approximately 63.5 kDa. A general note: A western blot detects proteins with antibodies after separation by electrophoresis.

These are yes or no findings as the source states them, for the method shown. For part of these data: Binding calls can cover weak binding; strength is not graded here. For part of these data: Where a sequence is shown, tags or fusion partners need not be part of it.

B1: GST-TcCaNB (recombinant Trypanosoma cruzi calcineurin regulatory subunit B tagged with GST) (protein, UniProt Q5V9N6 1-176)
chain: MGEGSSFTPEEMRQLREATAFSEAQIVRLQKRFATLAQGGRGVLTAEALSSISSVASNPLLGRVLAVLDTSGDGKIDFMTFAKALAVFSPQADKRERLRFTFKMYDVDGDGKISNKDLFETLTIMVGTNLTGVQLQQIVDKTFIEVDLNRDGYITFEEFEKLSLLNNFGDRLSLSI
On to B1, for which the binding entry in test [1] was “binds”.

B2: native TcCaNB (calcineurin regulatory subunit B in Trypanosoma cruzi epimastigotes) (protein, UniProt Q5V9N6 1-176)
chain: B1 chain
On to B2, for which the binding entry is “no binding (only with 6 M urea)” in test [2] and “binds” in test [3].
